# Laboratory results reported in the supplement of paper PMC10849652.
# The chains behind the UniProt entries cited, without tags or fusion partners. Where a name states a change or a piece, a line headed by the entry shows the natural chain unless it says otherwise.
# UniProt Q96GY3: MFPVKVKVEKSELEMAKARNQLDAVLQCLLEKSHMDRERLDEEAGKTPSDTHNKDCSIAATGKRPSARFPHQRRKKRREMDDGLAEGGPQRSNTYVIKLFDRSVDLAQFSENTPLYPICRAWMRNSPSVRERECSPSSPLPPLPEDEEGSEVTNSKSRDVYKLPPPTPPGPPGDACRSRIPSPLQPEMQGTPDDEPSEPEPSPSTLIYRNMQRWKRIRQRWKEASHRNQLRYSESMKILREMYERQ
# UniProt Q14693: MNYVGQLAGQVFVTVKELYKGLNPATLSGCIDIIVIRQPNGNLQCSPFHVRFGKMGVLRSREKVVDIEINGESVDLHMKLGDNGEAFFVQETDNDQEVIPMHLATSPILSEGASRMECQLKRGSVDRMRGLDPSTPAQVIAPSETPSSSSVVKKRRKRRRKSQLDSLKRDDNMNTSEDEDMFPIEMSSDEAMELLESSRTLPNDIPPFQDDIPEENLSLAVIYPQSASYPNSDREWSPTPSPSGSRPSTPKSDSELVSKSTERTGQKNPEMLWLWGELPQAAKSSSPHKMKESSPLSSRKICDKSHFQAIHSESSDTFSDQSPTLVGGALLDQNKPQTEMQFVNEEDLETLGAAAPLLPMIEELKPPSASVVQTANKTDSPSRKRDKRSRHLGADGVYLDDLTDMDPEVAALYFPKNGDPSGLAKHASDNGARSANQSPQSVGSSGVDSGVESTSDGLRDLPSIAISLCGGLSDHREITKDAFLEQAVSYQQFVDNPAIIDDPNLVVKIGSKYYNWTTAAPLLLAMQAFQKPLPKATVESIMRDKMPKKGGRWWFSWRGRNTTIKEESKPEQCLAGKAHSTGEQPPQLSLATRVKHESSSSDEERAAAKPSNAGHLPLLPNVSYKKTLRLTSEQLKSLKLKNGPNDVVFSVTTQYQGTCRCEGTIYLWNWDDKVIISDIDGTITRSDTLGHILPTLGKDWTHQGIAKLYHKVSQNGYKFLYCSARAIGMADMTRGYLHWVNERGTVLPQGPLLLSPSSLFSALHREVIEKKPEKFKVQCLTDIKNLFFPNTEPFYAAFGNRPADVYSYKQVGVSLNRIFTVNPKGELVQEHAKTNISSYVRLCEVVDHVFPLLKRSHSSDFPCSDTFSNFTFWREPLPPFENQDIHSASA
# UniProt Q9Y4W2: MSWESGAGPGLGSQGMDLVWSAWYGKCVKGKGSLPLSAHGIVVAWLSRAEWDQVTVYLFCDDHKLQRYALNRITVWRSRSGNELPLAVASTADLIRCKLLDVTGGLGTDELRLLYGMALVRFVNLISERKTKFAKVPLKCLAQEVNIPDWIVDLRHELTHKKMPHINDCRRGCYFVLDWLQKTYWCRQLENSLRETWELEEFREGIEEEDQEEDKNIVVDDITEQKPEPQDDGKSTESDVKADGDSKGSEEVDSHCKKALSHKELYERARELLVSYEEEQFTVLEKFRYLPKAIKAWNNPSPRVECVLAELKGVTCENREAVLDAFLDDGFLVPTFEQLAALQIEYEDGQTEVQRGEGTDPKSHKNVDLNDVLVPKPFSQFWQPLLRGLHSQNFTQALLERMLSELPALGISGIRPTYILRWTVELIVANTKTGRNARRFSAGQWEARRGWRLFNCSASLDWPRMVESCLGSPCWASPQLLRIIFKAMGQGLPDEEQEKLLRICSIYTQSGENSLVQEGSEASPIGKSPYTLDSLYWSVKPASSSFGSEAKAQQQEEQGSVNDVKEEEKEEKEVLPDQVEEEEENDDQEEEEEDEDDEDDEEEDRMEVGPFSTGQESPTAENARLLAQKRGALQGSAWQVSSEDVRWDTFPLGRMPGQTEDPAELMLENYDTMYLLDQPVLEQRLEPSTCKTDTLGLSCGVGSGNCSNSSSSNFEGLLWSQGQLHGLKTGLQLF
# UniProt Q32MZ4: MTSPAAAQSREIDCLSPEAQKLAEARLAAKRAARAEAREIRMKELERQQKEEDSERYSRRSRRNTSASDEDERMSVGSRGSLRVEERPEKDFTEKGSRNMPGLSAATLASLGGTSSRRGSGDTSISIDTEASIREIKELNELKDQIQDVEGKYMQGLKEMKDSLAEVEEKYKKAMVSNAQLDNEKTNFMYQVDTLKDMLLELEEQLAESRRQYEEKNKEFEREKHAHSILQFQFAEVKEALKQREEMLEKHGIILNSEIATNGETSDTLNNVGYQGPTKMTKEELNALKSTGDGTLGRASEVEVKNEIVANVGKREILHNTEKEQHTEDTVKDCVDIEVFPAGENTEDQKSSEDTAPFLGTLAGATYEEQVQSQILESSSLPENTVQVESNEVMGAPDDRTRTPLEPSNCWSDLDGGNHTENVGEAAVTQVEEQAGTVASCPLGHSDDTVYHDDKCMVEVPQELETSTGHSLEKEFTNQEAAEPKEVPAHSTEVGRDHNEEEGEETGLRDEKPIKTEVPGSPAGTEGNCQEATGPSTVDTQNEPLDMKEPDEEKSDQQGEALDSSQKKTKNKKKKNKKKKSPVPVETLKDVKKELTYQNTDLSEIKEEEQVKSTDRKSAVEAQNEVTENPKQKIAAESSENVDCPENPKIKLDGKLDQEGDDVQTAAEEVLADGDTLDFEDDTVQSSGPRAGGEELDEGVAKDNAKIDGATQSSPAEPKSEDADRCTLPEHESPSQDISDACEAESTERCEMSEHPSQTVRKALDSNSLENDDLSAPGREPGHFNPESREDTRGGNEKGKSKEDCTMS
# UniProt Q9Y4Z0: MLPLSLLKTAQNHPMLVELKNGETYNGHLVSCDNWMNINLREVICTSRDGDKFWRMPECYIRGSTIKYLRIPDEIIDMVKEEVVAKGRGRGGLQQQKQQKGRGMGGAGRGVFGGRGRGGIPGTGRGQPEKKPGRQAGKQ
# UniProt P48449: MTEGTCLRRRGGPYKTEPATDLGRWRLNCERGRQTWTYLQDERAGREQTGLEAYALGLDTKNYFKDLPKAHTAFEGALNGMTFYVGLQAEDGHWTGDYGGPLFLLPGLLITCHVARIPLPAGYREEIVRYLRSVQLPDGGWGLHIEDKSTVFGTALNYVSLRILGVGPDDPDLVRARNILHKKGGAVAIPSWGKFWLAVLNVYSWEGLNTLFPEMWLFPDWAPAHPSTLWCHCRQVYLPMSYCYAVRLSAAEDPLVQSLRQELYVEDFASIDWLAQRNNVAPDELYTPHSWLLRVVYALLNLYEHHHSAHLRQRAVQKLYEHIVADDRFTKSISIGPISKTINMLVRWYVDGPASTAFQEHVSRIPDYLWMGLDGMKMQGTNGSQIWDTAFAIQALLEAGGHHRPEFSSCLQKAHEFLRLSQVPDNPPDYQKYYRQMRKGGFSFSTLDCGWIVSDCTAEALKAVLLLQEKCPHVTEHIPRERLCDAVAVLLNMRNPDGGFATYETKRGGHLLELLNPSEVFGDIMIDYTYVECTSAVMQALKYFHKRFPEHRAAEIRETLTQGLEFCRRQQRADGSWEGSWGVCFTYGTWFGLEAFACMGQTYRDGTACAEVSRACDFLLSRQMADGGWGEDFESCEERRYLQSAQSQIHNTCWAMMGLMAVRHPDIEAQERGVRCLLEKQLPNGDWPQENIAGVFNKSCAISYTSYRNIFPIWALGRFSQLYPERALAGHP
# This is one part of the list.
# Columns and labels:
# Experiment in all cases: log2 fold change, soluble protein after heating vs DMSO (PISA); higher = thermal stabilisation; K562 lysate, 10 uM; active = over 0.2 and 3.5 SD of the protein, either way, in both replicates (recomputed)
# alvocidib = compound: CN1CC[C@H](c2c(O)cc(O)c3c(=O)cc(-c4ccccc4Cl)oc23)[C@H](O)C1 [alvocidib]
# Outline: (§1)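 Quantification was by TMTpro 16plex LC-MS/MS with equalised channel sums, applied to the supernatant after 21,000xg for 90 min. Samples were crude K562 extract at 1 mg/mL protein in PBS pH 7.4 with 1 mM MgCl2, treated with 10 μM compound for 30 min, heated for 3 min across 48°C-58°C, pooled and brought to 0.5% NP-40 at 4°C. Values are log-two fold changes in thermal stability relative to solvent controls, from duplicates.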
# Tubastatin A = compound: CN1CCc2c(c3ccccc3n2Cc2ccc(C(=O)NO)cc2)C1 [Tubastatin A]
# Outline: as §1
# [1] = compound: CNC(=O)C1=CC=CC=C1NC2=NC(=NC=C2Cl)NC3=C(C=C(C=C3)N4CCOCC4)OC
# Outline: as §1
# defactinib = compound: CNC(=O)c1ccc(Nc2ncc(C(F)(F)F)c(NCc3nccnc3N(C)S(C)(=O)=O)n2)cc1 [defactinib]
# Outline: as §1
# [2] = compound: CNc1nc(-c2ccc3c(N)n[nH]c3c2)cc(N2C[C@@H](C(=O)NC3CCCCC3)CC[C@H]2C)n1
# Outline: as §1
# encorafenib = compound: COC(=O)N[C@@H](C)CNc1nccc(-c2cn(C(C)C)nc2-c2cc(Cl)cc(NS(C)(=O)=O)c2F)n1 [encorafenib]
# Outline: as §1
# [3] = compound: COC(=O)[C@H](CCSC)NC(=O)C1=C(C=C(C=C1)NC[C@H](CS)N)C2=CC=CC=C2
# Outline: as §1
# alisertib = compound: COc1cc(Nc2ncc3c(n2)-c2ccc(Cl)cc2C(c2c(F)cccc2OC)=NC3)ccc1C(=O)O [alisertib]
# Outline: as §1
# [4] = compound: COc1cc2nc(-c3cc(F)ccc3O)nc(N[C@@H]3CNC[C@H]3C(C)(C)O)c2cc1OC
# Outline: as §1
# gefitinib = compound: COc1cc2ncnc(Nc3ccc(F)c(Cl)c3)c2cc1OCCCN1CCOCC1 [gefitinib]
# Outline: as §1
# lapatinib = compound: CS(=O)(=O)CCNCc1ccc(-c2ccc3ncnc(Nc4ccc(OCc5cccc(F)c5)c(Cl)c4)c3c2)o1 [lapatinib]
# Outline: as §1
# pictilisib = compound: CS(=O)(=O)N1CCN(Cc2cc3nc(-c4cccc5[nH]ncc45)nc(N4CCOCC4)c3s2)CC1 [pictilisib]
# Outline: as §1
# crizotinib = compound: C[C@@H](Oc1cc(-c2cnn(C3CCNCC3)c2)cnc1N)c1c(Cl)ccc(F)c1Cl [crizotinib]
# Outline: as §1
# [5] = compound: C[C@H](C1=CC=C(C=C1)C(=O)NC2=C3C=CNC3=NC=C2)N
# Outline: as §1
# duvelisib = compound: C[C@H](Nc1ncnc2nc[nH]c12)c1cc2cccc(Cl)c2c(=O)n1-c1ccccc1 [duvelisib]
# Outline: as §1
# gandotinib = compound: Cc1cc(Nc2cc(CN3CCOCC3)c3nc(C)c(Cc4ccc(Cl)cc4F)n3n2)n[nH]1 [gandotinib]
# Outline: as §1
# tozasertib = compound: Cc1cc(Nc2cc(N3CCN(C)CC3)nc(Sc3ccc(NC(=O)C4CC4)cc3)n2)n[nH]1 [tozasertib]
# Outline: as §1
# doramapimod = compound: Cc1ccc(-n2nc(C(C)(C)C)cc2NC(=O)Nc2ccc(OCCN3CCOCC3)c3ccccc23)cc1 [doramapimod]
# Outline: as §1
# bafetinib = compound: Cc1ccc(NC(=O)c2ccc(CN3CC[C@H](N(C)C)C3)c(C(F)(F)F)c2)cc1Nc1nccc(-c2cncnc2)n1 [bafetinib]
# Outline: as §1
# [6] = compound: Cc1cccc(CC(=O)N2CCc3c2ccc(-c2cn(C)c4ncnc(N)c24)c3F)n1
# Outline: as §1
Target,log2 fold change (alvocidib),log2 fold change (Tubastatin A),log2 fold change [1],log2 fold change (defactinib),log2 fold change [2],log2 fold change (encorafenib),log2 fold change [3],log2 fold change (alisertib),log2 fold change [4],log2 fold change (gefitinib),log2 fold change (lapatinib),log2 fold change (pictilisib),log2 fold change (crizotinib),log2 fold change [5],log2 fold change (duvelisib),log2 fold change (gandotinib),log2 fold change (tozasertib),log2 fold change (doramapimod),log2 fold change (bafetinib),log2 fold change [6]
LIN37 (UniProt Q96GY3),inactive: -0.129,inactive: -0.09,inactive: -0.05,inactive: 0.105,inactive: -0.002,inactive: -0.317,inactive: 0.159,inactive: -0.081,inactive: 0,inactive: 0.065,inactive: 0.039,inactive: -0.158,inactive: -0.119,inactive: -0.025,inactive: -0.056,inactive: 0.041,inactive: 0.013,inactive: 0.111,inactive: 0.022,inactive: 0.027
LPIN1 isoform 7 (UniProt Q14693),inactive: -0.054,inactive: -0.05,inactive: -0.006,inactive: 0.003,inactive: -0.1,inactive: 0.089,inactive: -0.064,inactive: -0.028,inactive: 0.007,inactive: -0.04,inactive: -0.052,inactive: -0.082,inactive: -0.035,inactive: -0.069,inactive: -0.097,inactive: -0.005,inactive: 0.012,inactive: 0.013,inactive: -0.04,inactive: 0.097
LAS1L (UniProt Q9Y4W2),inactive: -0.015,inactive: -0.127,inactive: -0.024,inactive: -0.02,inactive: 0.016,inactive: -0.04,inactive: 0.06,inactive: -0.011,inactive: 0.01,inactive: -0.013,inactive: -0.004,inactive: -0.033,inactive: -0.05,inactive: -0.051,inactive: -0.003,inactive: 0.017,inactive: 0.043,inactive: 0.011,inactive: -0.004,active: 0.233
LEO1 (UniProt Q8WVC0),inactive: -0.023,inactive: 0.047,inactive: 0.003,inactive: -0.027,inactive: 0.029,inactive: -0.026,inactive: 0.001,inactive: -0.005,inactive: 0.023,inactive: 0.07,inactive: -0.01,inactive: -0.019,inactive: 0.008,inactive: -0.005,inactive: -0.008,inactive: 0.019,inactive: -0.033,inactive: 0.023,inactive: -0.012,inactive: 0.025
LRRFIP1 (UniProt Q32MZ4),inactive: -0.024,inactive: 0.039,inactive: -0.001,inactive: -0.021,inactive: 0.02,inactive: 0.014,inactive: -0.035,inactive: -0.007,inactive: 0.006,inactive: 0.013,inactive: -0.001,inactive: 0.001,inactive: 0.03,inactive: -0.022,inactive: 0.044,inactive: 0.06,inactive: 0.024,inactive: -0.015,inactive: -0.017,inactive: 0.027
LSM4 (UniProt Q9Y4Z0),inactive: -0.017,inactive: 0.024,inactive: 0.001,inactive: -0.031,inactive: 0.013,inactive: -0.004,inactive: -0.044,inactive: -0.032,inactive: 0.011,inactive: -0.02,inactive: 0.02,inactive: 0.013,inactive: 0.024,inactive: -0.019,inactive: -0.002,inactive: 0.043,inactive: -0.031,inactive: -0.023,inactive: 0.036,inactive: 0.043
LRPPRC (UniProt P42704),inactive: 0.076,inactive: -0.091,inactive: 0.011,inactive: 0.037,inactive: -0.041,inactive: 0.005,inactive: 0.079,inactive: 0.029,inactive: -0.006,inactive: -0.005,inactive: -0.01,inactive: 0.048,inactive: -0.062,inactive: 0.058,inactive: -0.005,inactive: -0.189,inactive: 0.023,inactive: 0.022,inactive: -0.008,inactive: 0.045
LSS (UniProt P48449),inactive: -0.011,inactive: 0.021,inactive: -0.03,inactive: -0.026,inactive: 0.021,inactive: 0.031,inactive: 0.02,inactive: 0.011,inactive: 0.032,inactive: 0.055,inactive: 0,inactive: 0.11,active: 0.252,inactive: 0.01,inactive: 0.008,inactive: 0.028,inactive: 0.02,inactive: 0.031,inactive: 0.13,inactive: -0.013

# Part of the list above with just log2 fold change [1]:
Target,log2 fold change [1]
LIN37 (UniProt Q96GY3),inactive: -0.05
LSM4 (UniProt Q9Y4Z0),inactive: 0.001
